The target of assay [1] is T1, FLAG-tagged CHAC1 (glutathione-specific gamma-glutamylcyclotransferase 1) (human) (UniProt Q9BUX1).
T1 sequence: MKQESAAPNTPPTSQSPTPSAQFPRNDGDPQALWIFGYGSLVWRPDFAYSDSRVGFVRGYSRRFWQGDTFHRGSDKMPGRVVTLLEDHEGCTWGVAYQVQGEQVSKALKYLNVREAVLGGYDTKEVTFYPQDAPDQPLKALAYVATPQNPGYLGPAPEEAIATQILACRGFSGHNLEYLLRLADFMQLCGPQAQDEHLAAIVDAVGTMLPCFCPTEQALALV
Nature of the assay: co-IP; LUAD cells (A549, PC9) expressing tagged proteins (Flag-CHAC1 lentivirus, HA-PKM2, FLAG-SUMO1); RIPA lysis buffer with protease inhibitors, specific primary antibodies and protein A/G magnetic beads, normal IgG as control, washed thrice with TBS (50 mM Tris-HCl, 150 mM NaCl, pH 7.4), western blot. A general note: In western blotting, separated proteins are transferred to a membrane and probed.

By UniProt entry, the sequences of proteins in these tests, tags left out.
UniProt P14618: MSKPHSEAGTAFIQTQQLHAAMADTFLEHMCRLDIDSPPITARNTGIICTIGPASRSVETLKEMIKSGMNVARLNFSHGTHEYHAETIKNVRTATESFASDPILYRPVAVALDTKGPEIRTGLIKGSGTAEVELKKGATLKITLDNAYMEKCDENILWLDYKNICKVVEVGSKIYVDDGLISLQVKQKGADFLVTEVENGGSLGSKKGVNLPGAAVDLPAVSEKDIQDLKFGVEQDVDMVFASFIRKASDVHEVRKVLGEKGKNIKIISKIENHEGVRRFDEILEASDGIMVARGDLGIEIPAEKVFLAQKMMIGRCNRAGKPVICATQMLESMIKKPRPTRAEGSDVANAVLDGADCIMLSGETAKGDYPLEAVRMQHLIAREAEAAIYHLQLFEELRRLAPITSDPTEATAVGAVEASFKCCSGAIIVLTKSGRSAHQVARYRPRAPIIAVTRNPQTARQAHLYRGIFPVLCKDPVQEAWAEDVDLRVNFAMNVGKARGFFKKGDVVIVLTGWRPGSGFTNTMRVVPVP

Assay [2] has as its target T2, CHAC1 (glutathione-specific gamma-glutamylcyclotransferase 1), endogenous (human (endogenous in LUAD cell lines A549, PC9)) (UniProt Q9BUX1).
T2 sequence: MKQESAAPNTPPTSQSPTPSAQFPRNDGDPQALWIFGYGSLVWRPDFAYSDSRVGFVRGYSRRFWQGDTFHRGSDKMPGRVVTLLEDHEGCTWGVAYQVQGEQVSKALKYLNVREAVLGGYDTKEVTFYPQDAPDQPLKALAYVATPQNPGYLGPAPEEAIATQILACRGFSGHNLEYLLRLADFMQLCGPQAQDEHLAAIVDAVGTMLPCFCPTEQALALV
Nature of the assay: co-IP; endogenous proteins in LUAD cells; RIPA lysis buffer with protease inhibitors, specific primary antibodies and protein A/G magnetic beads, normal IgG as control, washed thrice with TBS (50 mM Tris-HCl, 150 mM NaCl, pH 7.4), western blot; also with CHAC1 knockdown.

Assay [3] concerns the target HA-tagged PKM2 (wild type) (UniProt P14618). Briefly: co-IP; LUAD cells (A549, PC9) expressing tagged proteins (Flag-CHAC1 lentivirus, HA-PKM2, FLAG-SUMO1); RIPA lysis buffer with protease inhibitors, specific primary antibodies and protein A/G magnetic beads, normal IgG as control, washed thrice with TBS (50 mM Tris-HCl, 150 mM NaCl, pH 7.4), western blot.

These are yes or no findings as the source states them, for the method shown. In cells and extracts the contact can be indirect. Some binding calls cover weakened binding; strength is not graded here. For some of these results: Where a sequence is shown, tags or fusion partners need not be part of it.

Turning to “PKM2 (pyruvate kinase M2), endogenous (from UniProt P14618 1-531)”, the binding result in assay [1] and in assay [2] was “binds” each time.

B1: UBA2 (ubiquitin-like modifier activating enzyme 2), endogenous (protein, UniProt Q9UBT2 1-640)
chain: MALSRGLPRELAEAVAGGRVLVVGAGGIGCELLKNLVLTGFSHIDLIDLDTIDVSNLNRQFLFQKKHVGRSKAQVAKESVLQFYPKANIVAYHDSIMNPDYNVEFFRQFILVMNALDNRAARNHVNRMCLAADVPLIESGTAGYLGQVTTIKKGVTECYECHPKPTQRTFPGCTIRNTPSEPIHCIVWAKYLFNQLFGEEDADQEVSPDRADPEAAWEPTEAEARARASNEDGDIKRISTKEWAKSTGYDPVKLFTKLFKDDIRYLLTMDKLWRKRKPPVPLDWAEVQSQGEETNASDQQNEPQLGLKDQQVLDVKSYARLFSKSIETLRVHLAEKGDGAELIWDKDDPSAMDFVTSAANLRMHIFSMNMKSRFDIKSMAGNIIPAIATTNAVIAGLIVLEGLKILSGKIDQCRTIFLNKQPNPRKKLLVPCALDPPNPNCYVCASKPEVTVRLNVHKVTVLTLQDKIVKEKFAMVAPDVQIEDGKGTILISSEEGETEANNHKKLSEFGIRNGSRLQADDFLQDYTLLINILHSEDLGKDVEFEVVGDAPEKVGPKQAEDAAKSITNGSDDGAQPSTSTAQEQDDVLIVDSDEEDSSNNADVSEEERSRKRKLDEKENLSAKRSRIEQKEELDDVIALD
As to B1, the binding entry in assay [1] was “binds”.

B2: FLAG-tagged CHAC1 (glutathione-specific gamma-glutamylcyclotransferase 1) (protein, UniProt Q9BUX1 1-222)
chain: MKQESAAPNTPPTSQSPTPSAQFPRNDGDPQALWIFGYGSLVWRPDFAYSDSRVGFVRGYSRRFWQGDTFHRGSDKMPGRVVTLLEDHEGCTWGVAYQVQGEQVSKALKYLNVREAVLGGYDTKEVTFYPQDAPDQPLKALAYVATPQNPGYLGPAPEEAIATQILACRGFSGHNLEYLLRLADFMQLCGPQAQDEHLAAIVDAVGTMLPCFCPTEQALALV
As for B2, in assay [3], the binding result is given as “binds”.
